The target in this experiment is Mad (Drosophila (endogenous in larvae)) (UniProt P42003). Nature of the experiment: co-IP; Drosophila larval lysates in CHAPS buffer (20 mM HEPES pH 7.5, 150 mM NaCl, 1 mM EDTA, 0.1% CHAPS); goat anti-Mad antibody, Protein G Dynabeads, 4 °C; blot with mouse anti-Pnr.

The chains behind the UniProt entries cited, without tags or fusion partners.
UniProt P42003: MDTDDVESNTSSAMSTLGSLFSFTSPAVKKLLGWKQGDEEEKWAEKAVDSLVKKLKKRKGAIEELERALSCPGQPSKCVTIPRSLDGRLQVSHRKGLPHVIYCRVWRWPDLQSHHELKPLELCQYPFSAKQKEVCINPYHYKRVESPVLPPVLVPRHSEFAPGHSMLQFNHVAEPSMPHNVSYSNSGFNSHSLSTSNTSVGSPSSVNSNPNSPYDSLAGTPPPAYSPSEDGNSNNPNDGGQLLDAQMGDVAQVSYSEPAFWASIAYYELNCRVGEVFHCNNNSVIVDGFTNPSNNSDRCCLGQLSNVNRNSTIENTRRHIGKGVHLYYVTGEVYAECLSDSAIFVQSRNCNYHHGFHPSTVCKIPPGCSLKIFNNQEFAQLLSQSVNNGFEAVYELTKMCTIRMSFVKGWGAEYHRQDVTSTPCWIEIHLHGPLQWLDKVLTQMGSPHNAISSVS
UniProt P52168: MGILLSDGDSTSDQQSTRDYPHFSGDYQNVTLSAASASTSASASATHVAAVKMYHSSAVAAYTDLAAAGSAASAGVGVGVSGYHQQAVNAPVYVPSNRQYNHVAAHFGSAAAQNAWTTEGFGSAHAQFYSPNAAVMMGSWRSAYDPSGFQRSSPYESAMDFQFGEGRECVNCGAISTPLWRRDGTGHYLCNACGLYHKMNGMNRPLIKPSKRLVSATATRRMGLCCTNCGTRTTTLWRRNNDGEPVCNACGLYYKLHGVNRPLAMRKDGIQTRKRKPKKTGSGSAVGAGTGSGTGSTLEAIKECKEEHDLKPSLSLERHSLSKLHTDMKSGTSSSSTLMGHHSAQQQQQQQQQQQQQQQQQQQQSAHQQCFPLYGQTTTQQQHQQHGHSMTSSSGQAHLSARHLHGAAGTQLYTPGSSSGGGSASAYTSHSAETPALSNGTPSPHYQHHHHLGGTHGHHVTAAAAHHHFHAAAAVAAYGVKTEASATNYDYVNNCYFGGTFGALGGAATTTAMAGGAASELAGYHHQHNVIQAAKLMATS

No constants are given. Whether binding was seen depends on the method and setting. In cells and extracts the contact can be indirect. Some entries that bind do so weakly or less than the wild type.

Regarding Pannier (from UniProt P52168 1-540), the binding entry is “binds”.
